Measured values taken from patent US12351591B2, “KRas inhibitors” (ELI LILLY AND COMPANY, priority 2022, dated 2025).
Some results were stated once for a whole list of compounds, not compound by compound.

These compounds were tested against T1, KRas wild-type (Homo sapiens, UniProt P01116) (assay: MKN-45 Cellular Active RAS GTPase ELISA (KRas Wild-type)). Settings: PANC-1 versus MKN-45 Cellular Active RAS GTPase ELISA.
T1 construct: host or cells: MKN-45
Type: cell-based

SMILES | selective inhibition preference for KRas G12D mutant over KRas wild-type
C[C@@H](O)CN1CC2CCC(C1)N2c1nc(OC[C@@H]2C[C@@H](F)CN2C)nc2c(F)c(-c3c(F)ccc4oc(N)c(C#N)c34)c3c(c12)COC3 [Example 355, 2-Amino-5-fluoro-4-[5-fluoro-3-[[(2S,4R)-4-fluoro-1-methyl-pyrrolidin-2-yl]methoxy]-1-[3-[(2R)-2-hydroxypropyl]-3,8-diazabicyclo[3.2.1]octan-8-yl]-7,9-dihydrofuro[3,4-f]quinazolin-6-yl]benzofuran-3-carbonitrile] | greater than 10 fold
CN1C[C@H](F)C[C@H]1COc1nc(N2C3CCC2CN(CCCO)C3)c2c3c(c(-c4ncc(F)c5sc(N)c(C#N)c45)c(F)c2n1)COC3 [Example 332, 2-Amino-7-fluoro-4-[5-fluoro-3-[[(2S,4R)-4-fluoro-1-methyl-pyrrolidin-2-yl]methoxy]-1-[3-(3-hydroxypropyl)-3,8-diazabicyclo[3.2.1]octan-8-yl]-7,9-dihydrofuro[3,4-f]quinazolin-6-yl]thieno[3,2-c]pyridine-3-carbonitrile] | greater than 10 fold
COCCN1CC2CCC(C1)N2c1nc(OC[C@@]23CCCN2C[C@H](F)C3)nc2c(F)c(-c3cccc4sc(N)c(C#N)c34)c3c(c12)COC3 [Example 212, 2-Amino-4-[5-fluoro-3-[[(2R,8S)-2-fluoro-1,2,3,5,6,7-hexahydropyrrolizin-8-yl]methoxy]-1-[3-(2-methoxyethyl)-3,8-diazabicyclo[3.2.1]octan-8-yl]-7,9-dihydrofuro[3,4-f]quinazolin-6-yl]benzothiophene-3-carbonitrile] | greater than 10 fold
COCCCN1CC2CCC(C1)N2c1nc(OC[C@@H]2C[C@@H](OC)CN2C)nc2c(F)c(-c3ncc(F)c4sc(N)c(C#N)c34)c3c(c12)COC3 [Example 238, 2-Amino-7-fluoro-4-[5-fluoro-3-[[(2S,4R)-4-methoxy-1-methyl-pyrrolidin-2-yl]methoxy]-1-[3-(3-methoxypropyl)-3,8-diazabicyclo[3.2.1]octan-8-yl]-7,9-dihydrofuro[3,4-f]quinazolin-6-yl]thieno[3,2-c]pyridine-3-carbonitrile] | greater than 10 fold
CN1CC2CCC(C1)N2c1nc(OC[C@@]23CCCN2C[C@H](F)C3)nc2c(F)c(-c3nccc4sc(N)c(C#N)c34)c3c(c12)COC3 [Example 51, 2-Amino-4-[5-fluoro-3-[[(2R,8S)-2-fluoro-1,2,3,5,6,7-hexahydropyrrolizin-8-yl]methoxy]-1-(3-methyl-3,8-diazabicyclo[3.2.1]octan-8-yl)-7,9-dihydrofuro[3,4-f]quinazolin-6-yl]thieno[3,2-c]pyridine-3-carbonitrile] | greater than 10 fold
C[C@@H](O)CN1CC2CCC(C1)N2c1nc(OC[C@@]23CCCN2C[C@H](F)C3)nc2c(F)c(-c3ccc(F)c4oc(N)c(C#N)c34)c3c(c12)COC3 [Example 174, 2-Amino-7-fluoro-4-[5-fluoro-3-[[(2R,8S)-2-fluoro-1,2,3,5,6,7-hexahydropyrrolizin-8-yl]methoxy]-1-[3-[(2R)-2-hydroxypropyl]-3,8-diazabicyclo[3.2.1]octan-8-yl]-7,9-dihydrofuro[3,4-f]quinazolin-6-yl]benzofuran-3-carbonitrile] | greater than 10 fold
C[C@H](O)CN1CC2CCC(C1)N2c1nc(OC[C@@]23CCCN2C[C@H](F)C3)nc2c(F)c(-c3ncc(F)c4sc(N)c(C#N)c34)c3c(c12)COC3 [Example 171, 2-Amino-7-fluoro-4-[5-fluoro-3-[[(2R,8S)-2-fluoro-1,2,3,5,6,7-hexahydropyrrolizin-8-yl]methoxy]-1-[3-[(2S)-2-hydroxypropyl]-3,8-diazabicyclo[3.2.1]octan-8-yl]-7,9-dihydrofuro[3,4-f]quinazolin-6-yl]thieno[3,2-c]pyridine-3-carbonitrile] | greater than 10 fold
N#Cc1c(N)sc2c(F)ccc(-c3c4c(c5c(N6C7CCC6CNC7)nc(OC[C@H]6COCCO6)nc5c3Cl)COC4)c12 [Example 7, 2-Amino-4-[5-chloro-1-(3,8-diazabicyclo[3.2.1]octan-8-yl)-3-[[(2R)-1,4-dioxan-2-yl]methoxy]-7,9-dihydrofuro[3,4-f]quinazolin-6-yl]-7-fluoro-benzothiophene-3-carbonitrile] | greater than 10 fold
COCCCN1CC2CC(C1)N2c1nc(OC[C@@]23CCCN2C[C@H](F)C3)nc2c(F)c(-c3ncc(F)c4sc(N)c(C#N)c34)c3c(c12)COC3 [Example 344, 2-Amino-7-fluoro-4-[5-fluoro-3-[[(2R,8S)-2-fluoro-1,2,3,5,6,7-hexahydropyrrolizin-8-yl]methoxy]-1-[3-(3-methoxypropyl)-3,6-diazabicyclo[3.1.1]heptan-6-yl]-7,9-dihydrofuro[3,4-f]quinazolin-6-yl]thieno[3,2-c]pyridine-3-carbonitrile] | greater than 10 fold
N#Cc1c(N)sc2cccc(-c3c4c(c5c(N6C7CCC6CNC7)nc(OC[C@@]67CCCN6C[C@H](F)C7)nc5c3F)COC4)c12 [Example 23, 2-Amino-4-[1-(3,8-diazabicyclo[3.2.1]octan-8-yl)-5-fluoro-3-[[(2R,8S)-2-fluoro-1,2,3,5,6,7-hexahydropyrrolizin-8-yl]methoxy]-7,9-dihydrofuro[3,4-f]quinazolin-6-yl]benzothiophene-3-carbonitrile] | greater than 10 fold
COCCN1CC2CCC(C1)N2c1nc(OC[C@@]23CCCN2C[C@H](F)C3)nc2c(F)c(-c3ncc(F)c4sc(N)c(C#N)c34)c3c(c12)COC3 [Example 124, 2-Amino-7-fluoro-4-[5-fluoro-3-[[(2R,8S)-2-fluoro-1,2,3,5,6,7-hexahydropyrrolizin-8-yl]methoxy]-1-[3-(2-methoxyethyl)-3,8-diazabicyclo[3.2.1]octan-8-yl]-7,9-dihydrofuro[3,4-f]quinazolin-6-yl]thieno[3,2-c]pyridine-3-carbonitrile] | greater than 10 fold
N#Cc1c(N)sc2c(F)cnc(-c3c4c(c5c(N6C7CCC6CN(CC[C@@H](O)CO)C7)nc(OC[C@@]67CCCN6C[C@H](F)C7)nc5c3F)COC4)c12 [Example 227, 2-Amino-4-[1-[3-[(3R)-3,4-dihydroxybutyl]-3,8-diazabicyclo[3.2.1]octan-8-yl]-5-fluoro-3-[[(2R,8S)-2-fluoro-1,2,3,5,6,7-hexahydropyrrolizin-8-yl]methoxy]-7,9-dihydrofuro[3,4-f]quinazolin-6-yl]-7-fluoro-thieno[3,2-c]pyridine-3-carbonitrile] | greater than 10 fold
N#Cc1c(N)sc2c(F)ccc(-c3c4c(c5c(N6C7CCC6CN(CC6COC6)C7)nc(OC[C@@]67CCCN6C[C@H](F)C7)nc5c3F)COC4)c12 (single isomer, unassigned) [Example 106] | greater than 10 fold
CN1CC2CCC(C1)N2c1nc(OC[C@@]23CCCN2C[C@H](F)C3)nc2c(F)c(-c3ccc(F)c4oc(N)c(C#N)c34)c3c(c12)COC3 [Example 136, 2-Amino-7-fluoro-4-[5-fluoro-3-[[(2R,8S)-2-fluoro-1,2,3,5,6,7-hexahydropyrrolizin-8-yl]methoxy]-1-(3-methyl-3,8-diazabicyclo[3.2.1]octan-8-yl)-7,9-dihydrofuro[3,4-f]quinazolin-6-yl]benzofuran-3-carbonitrile] | greater than 10 fold
N#Cc1c(N)sc2cccc(-c3c4c(c5c(N6C7CCC6CN(CCCO)C7)nc(OC[C@@]67CCCN6C[C@H](F)C7)nc5c3F)COC4)c12 (single isomer, unassigned) [Example 99] | greater than 10 fold
C[C@@H](O)CN1CC2CCC(C1)N2c1nc(OC[C@@]23CCCN2C[C@H](F)C3)nc2c(F)c(-c3nccc4sc(N)c(C#N)c34)c3c(c12)COC3 [Example 170, 2-Amino-4-[5-fluoro-3-[[(2R,8S)-2-fluoro-1,2,3,5,6,7-hexahydropyrrolizin-8-yl]methoxy]-1-[3-[(2R)-2-hydroxypropyl]-3,8-diazabicyclo[3.2.1]octan-8-yl]-7,9-dihydrofuro[3,4-f]quinazolin-6-yl]thieno[3,2-c]pyridine-3-carbonitrile] | greater than 10 fold
C[C@@H](O)CN1CC2CCC(C1)N2c1nc(OCC23CCCN2CC(F)(F)C3)nc2c(F)c(-c3ncc(F)c4sc(N)c(C#N)c34)c3c(c12)COC3 (stereo partly drawn) [Example 248, 2-Amino-4-[3-[(6,6-difluoro-2,3,5,7-tetrahydro-1H-pyrrolizin-8-yl)methoxy]-5-fluoro-1-[3-[(2R)-2-hydroxypropyl]-3,8-diazabicyclo[3.2.1]octan-8-yl]-7,9-dihydrofuro[3,4-f]quinazolin-6-yl]-7-fluoro-thieno[3,2-c]pyridine-3-carbonitrile] | greater than 10 fold
CN1CC[C@H]1COc1nc(N2C3CCC2CN(CCCO)C3)c2c3c(c(-c4c(F)ccc5sc(N)c(C#N)c45)c(F)c2n1)COC3 (single isomer, unassigned) [Example 148] | greater than 10 fold
COCCN1CC2CCC(C1)N2c1nc(OC[C@@]23CCCN2C[C@H](F)C3)nc2c(F)c(-c3nccc4sc(N)c(C#N)c34)c3c(c12)COC3 [Example 119, 2-Amino-4-[5-fluoro-3-[[(2R,8S)-2-fluoro-1,2,3,5,6,7-hexahydropyrrolizin-8-yl]methoxy]-1-[3-(2-methoxyethyl)-3,8-diazabicyclo[3.2.1]octan-8-yl]-7,9-dihydrofuro[3,4-f]quinazolin-6-yl]thieno[3,2-c]pyridine-3-carbonitrile] | greater than 10 fold
N#Cc1c(N)sc2cccc(-c3c4c(c5c(N6C7CCC6CN(CCCO)C7)nc(OC[C@H]6COCCO6)nc5c3F)COC4)c12 (single isomer, unassigned) [Example 214] | greater than 10 fold
